Laboratory results from paper PMC5007465.
No constants are given. Whether binding was seen depends on the method and setting. Binding seen in cells or lysates may run through a third protein. Some results given as binding are weak or reduced against the parent protein; the word gives no strength. Tags and fused reporters may be left off the sequences shown.

T1: MBP-KLHL15-His (human) (UniProt Q96M94)
T1 sequence: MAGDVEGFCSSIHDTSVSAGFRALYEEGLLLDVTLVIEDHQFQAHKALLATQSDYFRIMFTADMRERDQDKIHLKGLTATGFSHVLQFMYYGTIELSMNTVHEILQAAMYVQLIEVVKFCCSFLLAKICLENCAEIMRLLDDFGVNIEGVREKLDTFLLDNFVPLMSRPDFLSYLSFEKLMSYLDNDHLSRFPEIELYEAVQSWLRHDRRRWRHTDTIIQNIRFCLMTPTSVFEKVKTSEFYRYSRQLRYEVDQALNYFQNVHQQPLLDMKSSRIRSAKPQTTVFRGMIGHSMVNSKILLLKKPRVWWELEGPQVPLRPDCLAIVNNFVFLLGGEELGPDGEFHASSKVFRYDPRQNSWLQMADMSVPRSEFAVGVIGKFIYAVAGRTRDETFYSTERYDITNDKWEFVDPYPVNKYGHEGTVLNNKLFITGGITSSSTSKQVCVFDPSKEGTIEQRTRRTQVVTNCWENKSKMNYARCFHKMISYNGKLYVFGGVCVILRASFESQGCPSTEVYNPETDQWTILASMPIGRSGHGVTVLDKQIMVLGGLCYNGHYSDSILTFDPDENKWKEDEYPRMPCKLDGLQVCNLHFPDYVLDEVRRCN

B1: GFP-CtIP-ΔC3 (domain or fragment, UniProt Q99708 1-863)
chain: MNISGSSCGSPNSADTSSDFKDLWTKLKECHDREVQGLQVKVTKLKQERILDAQRLEEFFTKNQQLREQQKVLHETIKVLEDRLRAGLCDRCAVTEEHMRKKQQEFENIRQQNLKLITELMNERNTLQEENKKLSEQLQQKIENDQQHQAAELECEEDVIPDSPITAFSFSGVNRLRRKENPHVRYIEQTHTKLEHSVCANEMRKVSKSSTHPQHNPNENEILVADTYDQSQSPMAKAHGTSSYTPDKSSFNLATVVAETLGLGVQEESETQGPMSPLGDELYHCLEGNHKKQPFEESTRNTEDSLRFSDSTSKTPPQEELPTRVSSPVFGATSSIKSGLDLNTSLSPSLLQPGKKKHLKTLPFSNTCISRLEKTRSKSEDSALFTHHSLGSEVNKIIIQSSNKQILINKNISESLGEQNRTEYGKDSNTDKHLEPLKSLGGRTSKRKKTEEESEHEVSCPQASFDKENAFPFPMDNQFSMNGDCVMDKPLDLSDRFSAIQRQEKSQGSETSKNKFRQVTLYEALKTIPKGFSSSRKASDGNCTLPKDSPGEPCSQECIILQPLNKCSPDNKPSLQIKEENAVFKIPLRPRESLETENVLDDIKSAGSHEPIKIQTRSDHGGCELASVLQLNPCRTGKIKSLQNNQDVSFENIQWSIDPGADLSQYKMDVTVIDTKDGSQSKLGGETVDMDCTLVSETVLLKMKKQEQKGEKSSNEERKMNDSLEDMFDRTTHEEYESCLADSFSQAADEEEELSTATKKLHTHGDKQDKVKQKAFVEPYFKGDERETSLQNFPHIEVVRKKEERRKLLGHTCKECEIYYADMPAEEREKKLASCSRHRFRYIPPNTPENFWEVGFPSTQTCM
B2: GFP-CtIP-ΔC1 (domain or fragment, UniProt Q99708 1-789)
chain: MNISGSSCGSPNSADTSSDFKDLWTKLKECHDREVQGLQVKVTKLKQERILDAQRLEEFFTKNQQLREQQKVLHETIKVLEDRLRAGLCDRCAVTEEHMRKKQQEFENIRQQNLKLITELMNERNTLQEENKKLSEQLQQKIENDQQHQAAELECEEDVIPDSPITAFSFSGVNRLRRKENPHVRYIEQTHTKLEHSVCANEMRKVSKSSTHPQHNPNENEILVADTYDQSQSPMAKAHGTSSYTPDKSSFNLATVVAETLGLGVQEESETQGPMSPLGDELYHCLEGNHKKQPFEESTRNTEDSLRFSDSTSKTPPQEELPTRVSSPVFGATSSIKSGLDLNTSLSPSLLQPGKKKHLKTLPFSNTCISRLEKTRSKSEDSALFTHHSLGSEVNKIIIQSSNKQILINKNISESLGEQNRTEYGKDSNTDKHLEPLKSLGGRTSKRKKTEEESEHEVSCPQASFDKENAFPFPMDNQFSMNGDCVMDKPLDLSDRFSAIQRQEKSQGSETSKNKFRQVTLYEALKTIPKGFSSSRKASDGNCTLPKDSPGEPCSQECIILQPLNKCSPDNKPSLQIKEENAVFKIPLRPRESLETENVLDDIKSAGSHEPIKIQTRSDHGGCELASVLQLNPCRTGKIKSLQNNQDVSFENIQWSIDPGADLSQYKMDVTVIDTKDGSQSKLGGETVDMDCTLVSETVLLKMKKQEQKGEKSSNEERKMNDSLEDMFDRTTHEEYESCLADSFSQAADEEEELSTATKKLHTHGDKQDKVKQKAFVEPYFKGDERETS
B3: GFP-CtIP-ΔC2 (domain or fragment, UniProt Q99708 1-812)
chain: MNISGSSCGSPNSADTSSDFKDLWTKLKECHDREVQGLQVKVTKLKQERILDAQRLEEFFTKNQQLREQQKVLHETIKVLEDRLRAGLCDRCAVTEEHMRKKQQEFENIRQQNLKLITELMNERNTLQEENKKLSEQLQQKIENDQQHQAAELECEEDVIPDSPITAFSFSGVNRLRRKENPHVRYIEQTHTKLEHSVCANEMRKVSKSSTHPQHNPNENEILVADTYDQSQSPMAKAHGTSSYTPDKSSFNLATVVAETLGLGVQEESETQGPMSPLGDELYHCLEGNHKKQPFEESTRNTEDSLRFSDSTSKTPPQEELPTRVSSPVFGATSSIKSGLDLNTSLSPSLLQPGKKKHLKTLPFSNTCISRLEKTRSKSEDSALFTHHSLGSEVNKIIIQSSNKQILINKNISESLGEQNRTEYGKDSNTDKHLEPLKSLGGRTSKRKKTEEESEHEVSCPQASFDKENAFPFPMDNQFSMNGDCVMDKPLDLSDRFSAIQRQEKSQGSETSKNKFRQVTLYEALKTIPKGFSSSRKASDGNCTLPKDSPGEPCSQECIILQPLNKCSPDNKPSLQIKEENAVFKIPLRPRESLETENVLDDIKSAGSHEPIKIQTRSDHGGCELASVLQLNPCRTGKIKSLQNNQDVSFENIQWSIDPGADLSQYKMDVTVIDTKDGSQSKLGGETVDMDCTLVSETVLLKMKKQEQKGEKSSNEERKMNDSLEDMFDRTTHEEYESCLADSFSQAADEEEELSTATKKLHTHGDKQDKVKQKAFVEPYFKGDERETSLQNFPHIEVVRKKEERRKLLGHT

What follows are binders tested against T1, MBP-KLHL15-His (human) (assay: pull-down; MBP-KLHL15-His on amylose beads, incubated with 1 mg HEK293T lysate overexpressing GFP-CtIP constructs, 1 h at 4 °C, washes with NTEN300 (300 mM NaCl); immunoblot; only the target purified).

Question: How did the binding turn out when B1 was run?
Answer: binds

Question: For B2, which binding is on record?
Answer: no binding

Question: Which binding does the source give for B3 here?
Answer: no binding
